# Measured values published in the supplement of paper PMC8104966.
# Several values for one entry are separate records, joined by “and”; a condition that tells them apart may be missing. Equal values may be shown once. Some of the results follow. This data set is noisy: repeats of one test often differ as much as different tests do.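 U2OS cells carrying ACE2 were mixed with U2OS cells carrying full-length spike, and fusion was scored by imaging as the share of nuclei showing both cell types' fluorescent markers. A compound counts as an inhibitory hit when it is non-toxic and its fusion z-score falls below -3, meaning more than three standard deviations below the plate's DMSO wells.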
# Test system: U2OS ACE2 x SARS-CoV-2 spike co-culture
# Test: cell-cell fusion (fraction fused) z-score vs plate DMSO control; higher = more fusion
# Conditions: 30 µM; 5 h; toxicity class: non-toxic, passed QC
row,Compound,cell-cell fusion (z-score)
1,C[N+](C)(C)CCO.[Cl-],inactive: 2.97
2,C[N+](C)(C)CCO.[Cl-] [Choline chloride],inactive: 1.45
3,COc1c(Cl)c(C)c(C(=O)Oc2cc(C)c(C(=O)O)c(O)c2)c(O)c1Cl,inactive: 4.28
4,CC(C)(C)c1cc(NC(=O)Nc2ccc(-c3cn4c(n3)sc3cc(OCCN5CCOCC5)ccc34)cc2)no1 [Quizartinib (AC220)],inactive: 0.499
5,CC1(C)C2CCC1(C)C(O)C2 (stereo unspecified),inactive: 1.49
6,CSCC[C@H](NC(=O)[C@H](Cc1c[nH]c2ccccc12)NC(=O)[C@H](C)NC(=O)OC(C)(C)C)C(=O)N[C@@H](CC(=O)O)C(=O)N[C@@H](Cc1ccccc1)C(N)=O,inactive: 2.55
7,CN(C)CCOC(c1ccccc1)c1ccccc1.Cn1c(=O)c2[nH]c(Cl)nc2n(C)c1=O,inactive: 1.82
8,CN(N=O)C(=O)N[C@@H]1[C@@H](O)[C@H](O)[C@@H](CO)O[C@@H]1O,inactive: 2.41
9,CN(N=O)C(=O)N[C@@H]1[C@@H](O)[C@H](O)[C@@H](CO)O[C@@H]1O [Streptozocin],inactive: 0.631
10,O=C(O)/C=C/C(=O)O.OCCOCCN1CCN(C2=Nc3ccccc3Sc3ccccc32)CC1.OCCOCCN1CCN(C2=Nc3ccccc3Sc3ccccc32)CC1 [Quetiapine Fumarate],inactive: 2.65
11,C[C@@H](O)[C@H]1C(=O)N2C(C(=O)O)=C(S[C@@H]3CN[C@H](CNS(N)(=O)=O)C3)[C@H](C)[C@H]12.O [Doripenem Hydrate],inactive: 1.57
12,COCCOc1cc2ncnc(Cl)c2cc1OCCOC,inactive: 2.13
13,O=P(O)(O)C(O)(Cn1ccnc1)P(=O)(O)O [Zoledronic Acid],inactive: 1.52
14,Nc1ccc(S(=O)(=O)Nc2nccs2)cc1,inactive: 2.7
15,CC(C)OC(=O)[C@H](C)N[P@](=O)(CO[C@H](C)Cn1cnc2c(N)ncnc21)Oc1ccccc1 [Tenofovir alafenamide],inactive: 3.04
16,CCCN1CCC[C@H](c2cccc(O)c2)C1.Cl [R(+)-3PPP hydrochloride],inactive: 0.188
17,NC(=O)c1cn(Cc2c(F)cccc2F)nn1 [Rufinamide],inactive: 2.16
18,O=C(Nc1cccnc1)N1CCC(Cc2cccc(Oc3ccc(C(F)(F)F)cn3)c2)CC1,inactive: -0.0524
19,Cc1c(O)c(=O)ccn1C,inactive: 1.76
20,CCCCCCCCCCCCCCCCCCN(CCCCCCCCCCCCCCCCCC)CCCN(CCO)CCO [Avridine],inactive: 3.01
21,COc1ccc(-c2ccc3cc(C(=O)O)ccc3c2)cc1C12CC3CC(CC(C3)C1)C2 [Adapalene],inactive: 1.46
22,C[C@H](CCC(=O)O)[C@H]1CC[C@H]2[C@@H]3[C@@H](O)C[C@@H]4C[C@H](O)CC[C@]4(C)[C@H]3CC[C@]12C [Ursodeoxycholic acid],inactive: 3.32
23,CC(S)C(=O)NCC(=O)O (stereo unspecified) [Tiopronin],inactive: 3.31

row,Compound,cell-cell fusion (z-score)
1,C=CC1=C(C(=O)O)N2C(=O)[C@@H](NC(=O)/C(=N\O)c3csc(N)n3)[C@H]2SC1 [Cefdinir],inactive: 3.57
2,C[C@H](CCC(=O)O)[C@H]1CC[C@H]2[C@@H]3[C@H](O)C[C@@H]4C[C@H](O)CC[C@]4(C)[C@H]3CC[C@]12C [Chenodeoxycholic acid],inactive: 3.69
3,C[N+]1(C)[C@@H]2C[C@@H](OC(=O)C(O)(c3cccs3)c3cccs3)C[C@H]1[C@@H]1O[C@@H]12.[Br-] [Tiotropium bromide],inactive: 3.3
4,C=CCc1cc(OC)c2c(c1OC)OCO2,inactive: 1.94
5,CC(=O)O.CNC(=N)NCCC[C@H](N)C(=O)O [NG-Monomethyl-L-arginine acetate],inactive: 2.26
6,Cn1c(CNc2ccc(C(=N)N)cc2)nc2cc(C(=O)N(CCC(=O)O)c3ccccn3)ccc21 [Dabigatran],inactive: 3.39
7,Cc1cc2nc3ccc(N(C)C)cc3[s+]c2cc1N.[Cl-],inactive: 2.13
8,COc1cc2c(cc1OC)[C@@H]1C(=O)c3ccc(OC)c(CC=C(C)C)c3O[C@@H]1CO2,inactive: -1.28
9,C#CCN[C@@H]1CCc2ccccc21 [Rasagiline],inactive: 2.87
10,Nc1nc(=O)c2ncn(CCC(CO)CO)c2[nH]1 [Penciclovir],inactive: 1.79
11,O=c1cc(CO)occ1O,inactive: 1.64
12,CN1C2C[C@H](OC(=O)[C@H](CO)c3ccccc3)C[C@@H]1[C@@H](O)C2,inactive: 0.727
13,CCCN(CCC)CCc1cccc2c1CC(=O)N2.Cl [Ropinirole hydrochloride],inactive: 1.69
14,COc1ccccc1-c1cc(=O)c2c(OC)cccc2o1,inactive: 1.76
15,C[C@H]1CCN(C(=O)CC#N)C[C@@H]1N(C)c1ncnc2[nH]ccc12,inactive: 0.86 and inactive: 0.121
16,Nc1ccc(S(=O)(=O)Nc2ccnn2-c2ccccc2)cc1,inactive: 0.00714
17,Nc1ccc(S(=O)(=O)Nc2ccnn2-c2ccccc2)cc1 [Sulfaphenazole],inactive: 0.655
18,COc1ccccc1OCC(O)CN1CCN(CC(=O)Nc2c(C)cccc2C)CC1 (stereo unspecified),inactive: 2.76
19,CCOC(=O)c1cnc2c(cnn2CC)c1NN=C(C)C.Cl [Etazolate hydrochloride],inactive: -0.506
20,NC(=O)N1c2ccccc2CC(=O)c2ccccc21 [Oxcarbazepine],inactive: 2.25
21,C[C@]12CCC3c4ccc(O)cc4CCC3C1C[C@@H](O)[C@@H]2O (stereo partly specified),inactive: 0.747
22,CC(=O)c1c(C)c2cnc(Nc3ccc(N4CCNCC4)cn3)nc2n(C2CCCC2)c1=O [Palbociclib],inactive: 2.29
23,O=c1[nH]c(=O)n([C@H]2C[C@H](O)[C@@H](CO)O2)cc1F [Floxuridine],inactive: 2.41

# Some of the entries so far, tab-delimited.
row	Compound	cell-cell fusion (z-score)
8	CN(N=O)C(=O)N[C@@H]1[C@@H](O)[C@H](O)[C@@H](CO)O[C@@H]1O	inactive: 2.41
21	COc1ccc(-c2ccc3cc(C(=O)O)ccc3c2)cc1C12CC3CC(CC(C3)C1)C2 [Adapalene]	inactive: 1.46
20	NC(=O)N1c2ccccc2CC(=O)c2ccccc21 [Oxcarbazepine]	inactive: 2.25
22	CC(=O)c1c(C)c2cnc(Nc3ccc(N4CCNCC4)cn3)nc2n(C2CCCC2)c1=O [Palbociclib]	inactive: 2.29
